Literature values, collected in patent publication US20140248280A1, “ANTI-ERBB3 ANTIBODIES IN COMBINATION WITH PACLITAXEL FOR TREATMENT OF GYNECOLOGICAL CANCERS” (SANOFI, priority 2011, published 2014).

CC(=O)O[C@H]1C(=O)[C@@]2(C)[C@H]([C@H](OC(=O)c3ccccc3)[C@]3(O)C[C@H](OC(=O)[C@H](O)[C@@H](NC(=O)c4ccccc4)c4ccccc4)C(C)=C1C3(C)C)[C@]1(OC(C)=O)CO[C@@H]1C[C@@H]2O [Paclitaxel]
solubility in water: insoluble in water
